{"source": "PubChem BioAssay AID1224828 (NIAID, 2016)", "aim": "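Find genes required for NF-kappaB p65 moving into the nucleus after LPS in mouse macrophages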 (primary screen)", "system": "mouse RAW264.7 G9 macrophage reporter cells (GFP-p65, Tnf promoter-mCherry)", "reagents": "siRNA pool against mouse genes, 100 nM", "timing": "2 days siRNA transfection, then 40 min LPS before fixation", "treatment": "LPS (Salmonella minnesota R595) at 10 ng/ml", "measurement": "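Microscopy ratio of nuclear to perinuclear-ring GFP-p65 signal, scaled to the plate median; gene score is the average of two replicate robust z-scores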", "scale": "p65 translocation robust z-score: higher = more nuclear NF-kappaB p65 after LPS than the plate median; nuclear/cytoplasmic p65 ratio: higher = more nuclear NF-kappaB p65", "call rule": "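Called active when z exceeds 3.3 or falls under -1.56 (median of Tlr4 controls), giving activity score of at least 50; no calls for control wells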", "meaning of the calls": "active = hit (p65 shift raised or lowered); inactive = no clear change", "note": "This is a random part of about 17,000 deposited reagents. 762 of all reagents (4.5%) count as active. 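Active calls include both raised and lowered p65 entry, mostly lowered; wells with fewer than 50 cells lack a z-score.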 The raw values are shown without normalisation. Entries without a mark were called inactive. No sequences are given here."}
{"gene": "Tecrl", "p65 translocation robust z-score": 1.26, "nuclear/cytoplasmic p65 ratio, rep 1": 1.6, "nuclear/cytoplasmic p65 ratio, rep 2": 1.37, "low cell count flag": "enough cells to score"}
{"gene": "Usp9y", "p65 translocation robust z-score": -0.37, "nuclear/cytoplasmic p65 ratio, rep 1": 1.46, "nuclear/cytoplasmic p65 ratio, rep 2": 1.43, "low cell count flag": "enough cells to score"}
{"gene": "B3gnt3", "p65 translocation robust z-score": -0.03, "nuclear/cytoplasmic p65 ratio, rep 1": 1.62, "nuclear/cytoplasmic p65 ratio, rep 2": 1.6, "low cell count flag": "enough cells to score"}
{"gene": "Il17d", "p65 translocation robust z-score": "-1.74 (active)", "nuclear/cytoplasmic p65 ratio, rep 1": 1.26, "nuclear/cytoplasmic p65 ratio, rep 2": 1.24, "low cell count flag": "enough cells to score"}
{"gene": "Taf4b", "p65 translocation robust z-score": 1.15, "nuclear/cytoplasmic p65 ratio, rep 1": 1.77, "nuclear/cytoplasmic p65 ratio, rep 2": 1.8, "low cell count flag": "enough cells to score"}
{"gene": "Zcchc10", "p65 translocation robust z-score": 0.6, "nuclear/cytoplasmic p65 ratio, rep 1": 1.72, "nuclear/cytoplasmic p65 ratio, rep 2": 1.82, "low cell count flag": "enough cells to score"}
{"gene": "Glod5", "nuclear/cytoplasmic p65 ratio, rep 1": 1.31, "nuclear/cytoplasmic p65 ratio, rep 2": 1.37, "low cell count flag": "fewer than 50 cells per well; well left out of scoring"}
{"gene": "Eri1", "p65 translocation robust z-score": 1.99, "nuclear/cytoplasmic p65 ratio, rep 1": 1.68, "nuclear/cytoplasmic p65 ratio, rep 2": 1.36, "low cell count flag": "enough cells to score"}
{"gene": "Ptp4a1", "p65 translocation robust z-score": 0.05, "nuclear/cytoplasmic p65 ratio, rep 1": 1.48, "nuclear/cytoplasmic p65 ratio, rep 2": 1.43, "low cell count flag": "enough cells to score"}
{"gene": "Nfkb2", "p65 translocation robust z-score": 1.83, "nuclear/cytoplasmic p65 ratio, rep 1": 1.64, "nuclear/cytoplasmic p65 ratio, rep 2": 1.7, "low cell count flag": "enough cells to score"}
{"gene": "Ppil3", "p65 translocation robust z-score": -0.67, "nuclear/cytoplasmic p65 ratio, rep 1": 1.27, "nuclear/cytoplasmic p65 ratio, rep 2": 1.16, "low cell count flag": "enough cells to score"}
{"gene": "Vmn1r89", "nuclear/cytoplasmic p65 ratio, rep 1": 1.49, "nuclear/cytoplasmic p65 ratio, rep 2": 1.31, "low cell count flag": "fewer than 50 cells per well; well left out of scoring"}
{"gene": "Saxo6", "p65 translocation robust z-score": -0.1, "nuclear/cytoplasmic p65 ratio, rep 1": 1.43, "nuclear/cytoplasmic p65 ratio, rep 2": 1.33, "low cell count flag": "enough cells to score"}
{"gene": "Col6a1", "p65 translocation robust z-score": 0.02, "nuclear/cytoplasmic p65 ratio, rep 1": 1.55, "nuclear/cytoplasmic p65 ratio, rep 2": 1.31, "low cell count flag": "enough cells to score"}
{"gene": "Il11ra1", "p65 translocation robust z-score": -0.25, "nuclear/cytoplasmic p65 ratio, rep 1": 1.4, "nuclear/cytoplasmic p65 ratio, rep 2": 1.36, "low cell count flag": "enough cells to score"}
{"gene": "Rhno1", "p65 translocation robust z-score": -0.32, "nuclear/cytoplasmic p65 ratio, rep 1": 1.33, "nuclear/cytoplasmic p65 ratio, rep 2": 1.42, "low cell count flag": "enough cells to score"}
{"gene": "Tns4", "nuclear/cytoplasmic p65 ratio, rep 1": 1.35, "nuclear/cytoplasmic p65 ratio, rep 2": 1.43, "low cell count flag": "fewer than 50 cells per well; well left out of scoring"}
{"gene": "Cplx4", "p65 translocation robust z-score": -1.2, "nuclear/cytoplasmic p65 ratio, rep 1": 1.19, "nuclear/cytoplasmic p65 ratio, rep 2": 1.36, "low cell count flag": "enough cells to score"}
{"gene": "Slc12a6", "p65 translocation robust z-score": 0.28, "nuclear/cytoplasmic p65 ratio, rep 1": 1.5, "nuclear/cytoplasmic p65 ratio, rep 2": 1.62, "low cell count flag": "enough cells to score"}
{"gene": "Lancl1", "nuclear/cytoplasmic p65 ratio, rep 1": 1.54, "nuclear/cytoplasmic p65 ratio, rep 2": 1.81, "low cell count flag": "fewer than 50 cells per well; well left out of scoring"}
{"gene": "Rhoj", "p65 translocation robust z-score": -1.34, "nuclear/cytoplasmic p65 ratio, rep 1": 1.35, "nuclear/cytoplasmic p65 ratio, rep 2": 1.3, "low cell count flag": "enough cells to score"}
{"gene": "Ears2", "nuclear/cytoplasmic p65 ratio, rep 1": 1.19, "nuclear/cytoplasmic p65 ratio, rep 2": 1.27, "low cell count flag": "fewer than 50 cells per well; well left out of scoring"}
{"gene": "Or2v1", "nuclear/cytoplasmic p65 ratio, rep 1": 1.5, "nuclear/cytoplasmic p65 ratio, rep 2": 0.855, "low cell count flag": "fewer than 50 cells per well; well left out of scoring"}
{"gene": "Myh4", "p65 translocation robust z-score": -0.15, "nuclear/cytoplasmic p65 ratio, rep 1": 1.39, "nuclear/cytoplasmic p65 ratio, rep 2": 1.35, "low cell count flag": "enough cells to score"}
{"gene": "Psme2b", "nuclear/cytoplasmic p65 ratio, rep 1": 1.43, "nuclear/cytoplasmic p65 ratio, rep 2": 1.21, "low cell count flag": "fewer than 50 cells per well; well left out of scoring"}
{"gene": "1700120K04Rik", "p65 translocation robust z-score": "-2.3 (active)", "nuclear/cytoplasmic p65 ratio, rep 1": 1.2, "nuclear/cytoplasmic p65 ratio, rep 2": 1.12, "low cell count flag": "enough cells to score"}
{"gene": "Rgs3", "p65 translocation robust z-score": 0.25, "nuclear/cytoplasmic p65 ratio, rep 1": 1.53, "nuclear/cytoplasmic p65 ratio, rep 2": 1.64, "low cell count flag": "enough cells to score"}

Targets above whose gene name starts with S or s (2):
{"gene": "Saxo6", "p65 translocation robust z-score": -0.1, "nuclear/cytoplasmic p65 ratio, rep 1": 1.43, "nuclear/cytoplasmic p65 ratio, rep 2": 1.33, "low cell count flag": "enough cells to score"}
{"gene": "Slc12a6", "p65 translocation robust z-score": 0.28, "nuclear/cytoplasmic p65 ratio, rep 1": 1.5, "nuclear/cytoplasmic p65 ratio, rep 2": 1.62, "low cell count flag": "enough cells to score"}
